In the supplement of paper PMC12823440, “Inhibitors supercharge kinase turnover through native proteolytic circuits” (Nature, 2025):
Structures can show the parent of a compound that is named as a salt. The list shows a part of the results. Hit calls seldom repeat between salt and free forms of one compound.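 In K562 cells expressing nanoluciferase-fused kinases, luminescence was recorded at 4 h intervals between 2 and 18 h, normalized as percent of control with DMSO at 100% and a positive control at 0%. A significant (2 sigma) signal drop marks a time point as decreased. The authors' rule for a hit is not shown and takes in more than the number of time points.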

Sequences of proteins named here, by UniProt entry; tags and fusion partners are left off. A change or cut given only in a name is not applied to a line headed by its entry.
UniProt Q9BRS2: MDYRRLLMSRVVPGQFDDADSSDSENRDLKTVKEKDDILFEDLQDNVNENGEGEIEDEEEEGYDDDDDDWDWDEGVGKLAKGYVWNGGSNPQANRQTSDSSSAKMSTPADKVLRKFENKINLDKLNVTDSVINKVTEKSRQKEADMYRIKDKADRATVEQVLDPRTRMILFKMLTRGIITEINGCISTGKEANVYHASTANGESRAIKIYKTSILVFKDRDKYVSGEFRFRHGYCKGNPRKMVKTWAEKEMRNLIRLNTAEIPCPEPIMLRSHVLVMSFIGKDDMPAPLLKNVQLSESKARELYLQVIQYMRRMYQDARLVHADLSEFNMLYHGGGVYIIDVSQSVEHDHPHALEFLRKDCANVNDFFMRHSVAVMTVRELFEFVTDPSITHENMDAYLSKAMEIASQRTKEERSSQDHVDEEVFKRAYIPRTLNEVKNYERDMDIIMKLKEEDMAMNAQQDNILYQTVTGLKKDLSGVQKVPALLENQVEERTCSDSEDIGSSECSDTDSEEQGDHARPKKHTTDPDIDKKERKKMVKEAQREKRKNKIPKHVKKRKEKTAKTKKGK
UniProt Q15418, whole entry: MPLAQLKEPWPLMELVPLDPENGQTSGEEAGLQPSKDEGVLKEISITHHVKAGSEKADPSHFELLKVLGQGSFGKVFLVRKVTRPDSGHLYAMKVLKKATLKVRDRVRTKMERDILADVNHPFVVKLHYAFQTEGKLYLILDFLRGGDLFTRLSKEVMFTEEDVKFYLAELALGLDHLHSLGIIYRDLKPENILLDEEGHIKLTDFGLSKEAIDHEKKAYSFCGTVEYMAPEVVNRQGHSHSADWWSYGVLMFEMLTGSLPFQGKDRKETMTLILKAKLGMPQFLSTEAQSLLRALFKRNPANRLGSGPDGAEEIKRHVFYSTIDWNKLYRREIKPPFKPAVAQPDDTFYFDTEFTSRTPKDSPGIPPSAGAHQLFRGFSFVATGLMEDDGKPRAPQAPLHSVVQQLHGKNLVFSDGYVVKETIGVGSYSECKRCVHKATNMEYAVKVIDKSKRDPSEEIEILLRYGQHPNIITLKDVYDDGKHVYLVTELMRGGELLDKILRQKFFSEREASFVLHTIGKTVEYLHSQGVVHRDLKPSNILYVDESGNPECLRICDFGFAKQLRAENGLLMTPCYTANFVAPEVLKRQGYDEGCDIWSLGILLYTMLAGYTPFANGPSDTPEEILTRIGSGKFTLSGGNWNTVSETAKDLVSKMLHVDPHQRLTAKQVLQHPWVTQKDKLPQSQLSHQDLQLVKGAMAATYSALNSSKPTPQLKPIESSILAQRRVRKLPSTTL
UniProt Q9NYA1, whole entry: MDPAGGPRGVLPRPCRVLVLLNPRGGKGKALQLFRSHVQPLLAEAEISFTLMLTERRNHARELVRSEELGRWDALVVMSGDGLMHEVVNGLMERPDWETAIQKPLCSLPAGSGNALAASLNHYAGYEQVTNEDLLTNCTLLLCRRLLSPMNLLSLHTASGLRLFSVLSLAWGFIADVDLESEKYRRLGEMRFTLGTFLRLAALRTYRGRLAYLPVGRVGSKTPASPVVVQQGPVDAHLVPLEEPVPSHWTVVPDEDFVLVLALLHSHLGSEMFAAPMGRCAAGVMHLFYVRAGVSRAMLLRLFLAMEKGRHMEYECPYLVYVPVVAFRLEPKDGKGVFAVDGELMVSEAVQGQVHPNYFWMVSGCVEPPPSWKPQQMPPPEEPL
UniProt Q9Y6E0: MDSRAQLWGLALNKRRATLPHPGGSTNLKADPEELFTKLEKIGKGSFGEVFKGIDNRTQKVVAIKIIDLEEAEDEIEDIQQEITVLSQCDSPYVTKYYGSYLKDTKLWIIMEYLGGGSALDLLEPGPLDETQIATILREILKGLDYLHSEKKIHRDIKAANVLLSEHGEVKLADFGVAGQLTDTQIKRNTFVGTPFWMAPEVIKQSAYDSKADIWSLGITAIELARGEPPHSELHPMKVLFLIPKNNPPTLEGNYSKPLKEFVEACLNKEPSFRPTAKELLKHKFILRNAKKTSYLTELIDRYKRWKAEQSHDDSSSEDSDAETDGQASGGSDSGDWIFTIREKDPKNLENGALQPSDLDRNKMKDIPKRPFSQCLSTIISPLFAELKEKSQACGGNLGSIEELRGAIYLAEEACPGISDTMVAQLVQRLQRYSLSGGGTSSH
UniProt Q15208: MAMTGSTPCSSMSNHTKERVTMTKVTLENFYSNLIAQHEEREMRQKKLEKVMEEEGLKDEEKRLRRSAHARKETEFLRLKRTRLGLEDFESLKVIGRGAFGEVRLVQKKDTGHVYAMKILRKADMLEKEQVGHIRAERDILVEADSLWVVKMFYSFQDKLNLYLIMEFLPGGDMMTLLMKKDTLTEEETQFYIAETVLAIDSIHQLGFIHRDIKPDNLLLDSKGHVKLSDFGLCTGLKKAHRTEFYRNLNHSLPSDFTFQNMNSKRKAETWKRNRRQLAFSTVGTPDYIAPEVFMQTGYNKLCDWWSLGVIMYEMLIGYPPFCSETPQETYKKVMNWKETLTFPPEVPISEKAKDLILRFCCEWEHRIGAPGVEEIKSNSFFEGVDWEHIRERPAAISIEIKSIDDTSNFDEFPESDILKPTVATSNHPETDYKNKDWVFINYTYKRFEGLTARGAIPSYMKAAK
UniProt P42680: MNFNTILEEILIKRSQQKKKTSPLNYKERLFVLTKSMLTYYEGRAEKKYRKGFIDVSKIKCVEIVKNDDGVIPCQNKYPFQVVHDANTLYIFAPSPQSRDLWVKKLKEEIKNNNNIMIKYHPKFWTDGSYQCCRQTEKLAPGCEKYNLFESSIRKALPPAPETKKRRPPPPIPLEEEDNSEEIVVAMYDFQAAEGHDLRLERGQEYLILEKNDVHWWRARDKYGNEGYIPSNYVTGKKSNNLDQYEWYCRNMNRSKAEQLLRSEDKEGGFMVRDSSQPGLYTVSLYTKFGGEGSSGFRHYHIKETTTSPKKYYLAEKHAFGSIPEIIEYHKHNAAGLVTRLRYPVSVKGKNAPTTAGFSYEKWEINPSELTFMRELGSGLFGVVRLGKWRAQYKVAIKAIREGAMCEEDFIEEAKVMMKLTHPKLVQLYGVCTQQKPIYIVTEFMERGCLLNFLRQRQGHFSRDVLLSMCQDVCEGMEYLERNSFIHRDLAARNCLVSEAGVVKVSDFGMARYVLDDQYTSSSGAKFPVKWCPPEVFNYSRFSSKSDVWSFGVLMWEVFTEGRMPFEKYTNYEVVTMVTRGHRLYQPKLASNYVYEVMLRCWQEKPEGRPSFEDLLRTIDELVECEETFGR
UniProt P29597: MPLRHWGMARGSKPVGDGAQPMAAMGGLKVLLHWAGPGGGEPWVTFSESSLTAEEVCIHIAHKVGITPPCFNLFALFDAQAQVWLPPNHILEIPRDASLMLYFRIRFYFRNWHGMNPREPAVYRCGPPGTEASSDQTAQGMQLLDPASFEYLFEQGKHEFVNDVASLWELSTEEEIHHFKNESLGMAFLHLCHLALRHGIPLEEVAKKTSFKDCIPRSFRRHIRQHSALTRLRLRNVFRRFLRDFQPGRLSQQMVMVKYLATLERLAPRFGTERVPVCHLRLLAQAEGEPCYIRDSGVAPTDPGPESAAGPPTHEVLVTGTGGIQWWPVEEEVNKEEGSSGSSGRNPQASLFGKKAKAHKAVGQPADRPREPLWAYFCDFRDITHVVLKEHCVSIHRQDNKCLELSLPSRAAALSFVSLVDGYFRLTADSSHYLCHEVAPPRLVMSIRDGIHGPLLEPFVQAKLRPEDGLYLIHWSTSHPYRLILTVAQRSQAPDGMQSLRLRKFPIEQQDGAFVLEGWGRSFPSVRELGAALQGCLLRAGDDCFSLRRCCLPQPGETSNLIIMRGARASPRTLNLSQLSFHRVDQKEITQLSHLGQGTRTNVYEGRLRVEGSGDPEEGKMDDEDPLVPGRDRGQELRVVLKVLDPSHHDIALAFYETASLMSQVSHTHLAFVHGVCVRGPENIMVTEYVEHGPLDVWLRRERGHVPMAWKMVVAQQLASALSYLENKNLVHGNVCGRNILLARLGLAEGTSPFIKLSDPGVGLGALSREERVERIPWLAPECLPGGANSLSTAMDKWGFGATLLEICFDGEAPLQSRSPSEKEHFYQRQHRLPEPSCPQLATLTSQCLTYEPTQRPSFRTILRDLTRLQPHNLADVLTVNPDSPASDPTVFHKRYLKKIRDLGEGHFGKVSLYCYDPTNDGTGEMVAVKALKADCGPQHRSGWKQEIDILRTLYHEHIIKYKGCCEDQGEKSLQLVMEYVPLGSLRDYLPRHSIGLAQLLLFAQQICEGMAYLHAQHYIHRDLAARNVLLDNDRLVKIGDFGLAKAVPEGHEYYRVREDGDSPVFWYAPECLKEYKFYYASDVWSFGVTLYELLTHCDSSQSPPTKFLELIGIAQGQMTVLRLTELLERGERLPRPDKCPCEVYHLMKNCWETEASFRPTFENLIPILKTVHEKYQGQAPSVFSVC
UniProt Q6PHR2: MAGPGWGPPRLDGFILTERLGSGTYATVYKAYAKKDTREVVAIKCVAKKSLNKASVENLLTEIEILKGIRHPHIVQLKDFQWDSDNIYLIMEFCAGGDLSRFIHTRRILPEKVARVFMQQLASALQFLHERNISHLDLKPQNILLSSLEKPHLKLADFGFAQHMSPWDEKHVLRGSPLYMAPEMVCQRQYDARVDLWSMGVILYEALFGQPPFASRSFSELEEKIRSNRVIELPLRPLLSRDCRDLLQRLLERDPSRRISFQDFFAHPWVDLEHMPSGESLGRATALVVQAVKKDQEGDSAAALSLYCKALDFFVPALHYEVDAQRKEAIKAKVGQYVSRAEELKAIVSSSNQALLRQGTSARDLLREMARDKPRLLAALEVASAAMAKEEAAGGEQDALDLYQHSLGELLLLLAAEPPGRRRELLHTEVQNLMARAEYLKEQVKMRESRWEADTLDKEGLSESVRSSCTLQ
UniProt P07947, whole entry, looked up: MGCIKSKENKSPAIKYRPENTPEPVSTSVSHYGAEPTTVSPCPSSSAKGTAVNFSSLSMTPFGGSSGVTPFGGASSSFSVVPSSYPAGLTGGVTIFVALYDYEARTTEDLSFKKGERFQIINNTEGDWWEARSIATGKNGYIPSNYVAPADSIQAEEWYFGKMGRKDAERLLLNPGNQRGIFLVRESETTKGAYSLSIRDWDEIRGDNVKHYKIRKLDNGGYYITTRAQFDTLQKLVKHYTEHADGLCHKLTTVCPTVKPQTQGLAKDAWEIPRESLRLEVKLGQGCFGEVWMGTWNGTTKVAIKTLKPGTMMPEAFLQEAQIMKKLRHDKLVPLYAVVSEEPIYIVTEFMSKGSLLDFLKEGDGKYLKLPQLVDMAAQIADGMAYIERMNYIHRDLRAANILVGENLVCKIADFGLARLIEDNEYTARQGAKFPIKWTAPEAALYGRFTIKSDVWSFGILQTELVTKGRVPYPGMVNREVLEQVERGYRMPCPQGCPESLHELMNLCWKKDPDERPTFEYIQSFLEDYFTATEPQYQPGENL
UniProt P43403: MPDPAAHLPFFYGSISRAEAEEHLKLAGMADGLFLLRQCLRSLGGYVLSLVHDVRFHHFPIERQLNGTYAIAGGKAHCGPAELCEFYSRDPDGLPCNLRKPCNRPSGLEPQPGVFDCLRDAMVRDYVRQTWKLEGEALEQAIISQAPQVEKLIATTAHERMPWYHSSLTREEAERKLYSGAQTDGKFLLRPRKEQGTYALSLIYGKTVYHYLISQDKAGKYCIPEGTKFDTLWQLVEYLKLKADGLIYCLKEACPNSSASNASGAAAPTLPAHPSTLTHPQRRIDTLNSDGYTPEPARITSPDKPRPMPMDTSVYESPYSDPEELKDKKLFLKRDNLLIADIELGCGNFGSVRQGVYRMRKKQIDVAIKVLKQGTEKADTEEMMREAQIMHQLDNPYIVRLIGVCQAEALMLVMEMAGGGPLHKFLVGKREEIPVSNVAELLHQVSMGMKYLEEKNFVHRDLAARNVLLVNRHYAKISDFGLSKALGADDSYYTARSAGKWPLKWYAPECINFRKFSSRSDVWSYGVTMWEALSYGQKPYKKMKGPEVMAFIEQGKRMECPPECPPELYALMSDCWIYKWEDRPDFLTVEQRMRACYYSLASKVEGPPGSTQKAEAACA
UniProt P31749: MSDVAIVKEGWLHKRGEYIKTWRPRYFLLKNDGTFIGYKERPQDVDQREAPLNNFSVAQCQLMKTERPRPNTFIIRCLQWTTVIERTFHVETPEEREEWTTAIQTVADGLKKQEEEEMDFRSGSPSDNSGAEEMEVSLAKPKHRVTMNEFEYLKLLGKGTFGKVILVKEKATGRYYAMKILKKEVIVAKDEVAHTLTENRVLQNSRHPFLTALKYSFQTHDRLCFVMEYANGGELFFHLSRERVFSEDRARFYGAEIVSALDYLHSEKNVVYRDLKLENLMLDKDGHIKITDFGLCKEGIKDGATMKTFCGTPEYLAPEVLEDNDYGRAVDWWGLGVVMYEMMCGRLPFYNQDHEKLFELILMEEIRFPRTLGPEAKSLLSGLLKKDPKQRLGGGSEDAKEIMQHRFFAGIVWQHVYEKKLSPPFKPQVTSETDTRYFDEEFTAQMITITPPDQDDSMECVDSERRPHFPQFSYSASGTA

Assays:
Conditions in all cases: K562; 2-18 h
RET = RET (UniProt P07949); assay: kinase-Nluc reporter destabilization hit call (1 = scored as downregulated) (binary); higher = compound decreases kinase abundance
[1] = molecular target: RET_M918T (clone: RET_mut) (UniProt P07949); assay: as above
RIOK1 = RIOK1 (UniProt Q9BRS2); assay: as above
RIPK1 = RIPK1 (UniProt Q13546); assay: as above
RIPK2 = RIPK2 (UniProt O43353); assay: as above
ROR2 = ROR2 (UniProt Q01974); assay: as above
RPS6KA1 = RPS6KA1 (UniProt Q15418); assay: as above
SPHK1 = SPHK1 (UniProt Q9NYA1); assay: as above
SRC = SRC (UniProt P12931); assay: as above
STK24 = STK24 (UniProt Q9Y6E0); assay: as above
STK38 = STK38 (UniProt Q15208); assay: as above
SYK = SYK (UniProt P43405); assay: as above
TEC = TEC (UniProt P42680); assay: as above
TYK2 = TYK2 (UniProt P29597); assay: as above
ULK3 = ULK3 (UniProt Q6PHR2); assay: as above
YES1 = YES1 (UniProt P07947); assay: as above
ZAK = ZAK (UniProt Q9NYL2); assay: as above
ZAP70 = ZAP70 (UniProt P43403); assay: as above
ABL1 = ABL1 (UniProt P00519); assay: number of time points (of 5) at which kinase-Nluc abundance scored as decreased, DMSO-normalised (count); higher = more persistent destabilization
AKT1 = AKT1 (UniProt P31749); assay: as above

Compound | kinase-Nluc reporter destabilization hit call (RET) | kinase-Nluc reporter destabilization hit call [1] | kinase-Nluc reporter destabilization hit call (RIOK1) | kinase-Nluc reporter destabilization hit call (RIPK1) | kinase-Nluc reporter destabilization hit call (RIPK2) | kinase-Nluc reporter destabilization hit call (ROR2) | kinase-Nluc reporter destabilization hit call (RPS6KA1) | kinase-Nluc reporter destabilization hit call (SPHK1) | kinase-Nluc reporter destabilization hit call (SRC) | kinase-Nluc reporter destabilization hit call (STK24) | kinase-Nluc reporter destabilization hit call (STK38) | kinase-Nluc reporter destabilization hit call (SYK) | kinase-Nluc reporter destabilization hit call (TEC) | kinase-Nluc reporter destabilization hit call (TYK2) | kinase-Nluc reporter destabilization hit call (ULK3) | kinase-Nluc reporter destabilization hit call (YES1) | kinase-Nluc reporter destabilization hit call (ZAK) | kinase-Nluc reporter destabilization hit call (ZAP70) | number of time points (ABL1) | number of time points (AKT1)
CCS(=O)(=O)Nc1ccc2[nH]c(O)c(C(=Nc3ccc(CN4CCCCC4)cc3)c3ccccc3)c2c1 [Hesperadin] (2.5 µM) | inactive: 0 | inactive: 0 | inactive: 0 | inactive: 0 | inactive: 0 | inactive: 0 | inactive: 0 | inactive: 0 | inactive: 0 | inactive: 0 | inactive: 0 | inactive: 0 | inactive: 0 | inactive: 0 | inactive: 0 | inactive: 0 | inactive: 0 | inactive: 0 | 4 | 0
O=Nc1c(-c2c(O)[nH]c3ccc(F)cc23)[nH]c2ccccc12 [5'-Fluoroindirubinoxime] (10 µM) | active: 1 | active: 1 | inactive: 0 | inactive: 0 | inactive: 0 | inactive: 0 | inactive: 0 | inactive: 0 | inactive: 0 | inactive: 0 | inactive: 0 | inactive: 0 | inactive: 0 | inactive: 0 | inactive: 0 | inactive: 0 | inactive: 0 | inactive: 0 | 1 | 0
CCNc1nc(Nc2cc(F)c(C(=O)N3CCOCC3)cc2OC)ncc1C(F)(F)F [GNE-7915 (tosylate)] (10 µM) | inactive: 0 | inactive: 0 | inactive: 0 | inactive: 0 | inactive: 0 | inactive: 0 | inactive: 0 | inactive: 0 | inactive: 0 | inactive: 0 | inactive: 0 | inactive: 0 | inactive: 0 | inactive: 0 | inactive: 0 | inactive: 0 | inactive: 0 | inactive: 0 | 0 | 0
O=C1Nc2ccc(C(=O)c3ccco3)cc2C1=Cc1cc(Cl)c(O)c(Cl)c1 (2.5 µM) | inactive: 0 | inactive: 0 | inactive: 0 | inactive: 0 | inactive: 0 | inactive: 0 | inactive: 0 | inactive: 0 | inactive: 0 | inactive: 0 | inactive: 0 | inactive: 0 | inactive: 0 | inactive: 0 | inactive: 0 | inactive: 0 | inactive: 0 | inactive: 0 | 0 | 0
COc1cc(Nc2ncc(F)c(Nc3ccc4c(n3)NC(=O)C(C)(C)O4)n2)cc(OC)c1OC (10 µM) | – | – | inactive: 0 | inactive: 0 | inactive: 0 | inactive: 0 | inactive: 0 | inactive: 0 | inactive: 0 | inactive: 0 | inactive: 0 | – | inactive: 0 | inactive: 0 | inactive: 0 | inactive: 0 | inactive: 0 | inactive: 0 | 0 | 0
COc1cc2c(N3CCN(C(=O)Nc4ccc(OC(C)C)cc4)CC3)ncnc2cc1OCCCN1CCCCC1 [Tandutinib (hydrochloride)] (10 µM) | inactive: 0 | inactive: 0 | inactive: 0 | inactive: 0 | inactive: 0 | inactive: 0 | inactive: 0 | inactive: 0 | inactive: 0 | inactive: 0 | inactive: 0 | inactive: 0 | inactive: 0 | inactive: 0 | inactive: 0 | inactive: 0 | inactive: 0 | inactive: 0 | 0 | 0
NC(=O)c1ccc2[nH]ccc2c1 (10 µM) | inactive: 0 | inactive: 0 | inactive: 0 | inactive: 0 | inactive: 0 | inactive: 0 | inactive: 0 | inactive: 0 | inactive: 0 | inactive: 0 | inactive: 0 | inactive: 0 | inactive: 0 | inactive: 0 | inactive: 0 | inactive: 0 | inactive: 0 | inactive: 0 | 0 | 0
S=C(SSC(=S)N1CCOCC1)N1CCOCC1 (10 µM) | inactive: 0 | inactive: 0 | inactive: 0 | inactive: 0 | inactive: 0 | inactive: 0 | inactive: 0 | inactive: 0 | inactive: 0 | inactive: 0 | inactive: 0 | inactive: 0 | inactive: 0 | inactive: 0 | active: 1 | inactive: 0 | inactive: 0 | inactive: 0 | 3 | 0
Cc1[nH]c(/C=C2\C(=O)Nc3ccccc32)c(C)c1CCC(=O)O [(Z)-Orantinib] (10 µM) | inactive: 0 | inactive: 0 | inactive: 0 | inactive: 0 | inactive: 0 | inactive: 0 | – | inactive: 0 | inactive: 0 | inactive: 0 | inactive: 0 | inactive: 0 | inactive: 0 | inactive: 0 | inactive: 0 | inactive: 0 | inactive: 0 | inactive: 0 | 0 | 0
CC(C)(O)CNc1ncc(-c2ccnc(Nc3ccnc(Cl)c3)n2)c(CC2CC2)n1 (2.5 µM) | inactive: 0 | inactive: 0 | inactive: 0 | inactive: 0 | inactive: 0 | inactive: 0 | inactive: 0 | inactive: 0 | inactive: 0 | inactive: 0 | inactive: 0 | inactive: 0 | inactive: 0 | inactive: 0 | inactive: 0 | inactive: 0 | inactive: 0 | inactive: 0 | 0 | 0
CS(=O)(=O)Nc1cc(-c2ccc3ncnc(Nc4ccc(F)c(Cl)c4)c3c2)cnc1Cl (2.5 µM) | inactive: 0 | inactive: 0 | inactive: 0 | inactive: 0 | inactive: 0 | inactive: 0 | inactive: 0 | inactive: 0 | inactive: 0 | inactive: 0 | inactive: 0 | inactive: 0 | inactive: 0 | inactive: 0 | inactive: 0 | inactive: 0 | inactive: 0 | inactive: 0 | 2 | 0
c1ccc(-c2[nH]ncc2-c2ccnc3ccccc23)nc1 (10 µM) | inactive: 0 | inactive: 0 | inactive: 0 | inactive: 0 | inactive: 0 | inactive: 0 | inactive: 0 | inactive: 0 | inactive: 0 | inactive: 0 | inactive: 0 | inactive: 0 | inactive: 0 | inactive: 0 | inactive: 0 | inactive: 0 | inactive: 0 | inactive: 0 | 0 | 0
COc1cc(Nc2ncc(F)c(Nc3ccc4c(n3)NC(=O)C(C)(C)O4)n2)cc(OC)c1OC [R406 (free base)] (10 µM) | – | – | inactive: 0 | inactive: 0 | inactive: 0 | inactive: 0 | inactive: 0 | inactive: 0 | inactive: 0 | inactive: 0 | inactive: 0 | – | inactive: 0 | inactive: 0 | inactive: 0 | inactive: 0 | inactive: 0 | inactive: 0 | 0 | 0
CCN1CCN(Cc2ccc(-c3cc4c(N[C@H](C)c5ccccc5)ncnc4[nH]3)cc2)CC1 (2.5 µM) | inactive: 0 | inactive: 0 | inactive: 0 | inactive: 0 | inactive: 0 | inactive: 0 | inactive: 0 | inactive: 0 | inactive: 0 | inactive: 0 | inactive: 0 | inactive: 0 | inactive: 0 | inactive: 0 | inactive: 0 | inactive: 0 | inactive: 0 | inactive: 0 | 3 | 0
C[C@@H]1CCN(C(=O)CC#N)C[C@@H]1N(C)c1ncnc2[nH]ccc12 [Tofacitinib (citrate)] (10 µM) | inactive: 0 | inactive: 0 | inactive: 0 | inactive: 0 | inactive: 0 | inactive: 0 | inactive: 0 | inactive: 0 | inactive: 0 | inactive: 0 | inactive: 0 | – | inactive: 0 | inactive: 0 | inactive: 0 | inactive: 0 | inactive: 0 | inactive: 0 | 0 | 0
CCN1CCN(Cc2ccc(Nc3ncc(F)c(-c4cc(F)c5nc(C)n(C(C)C)c5c4)n3)nc2)CC1 [Abemaciclib] (2 µM) | inactive: 0 | inactive: 0 | inactive: 0 | inactive: 0 | inactive: 0 | inactive: 0 | inactive: 0 | inactive: 0 | inactive: 0 | inactive: 0 | – | inactive: 0 | inactive: 0 | – | inactive: 0 | inactive: 0 | inactive: 0 | inactive: 0 | 0 | 0
CNC(=O)c1c(F)cccc1Nc1nc(Nc2cc3c(cc2OC)CCN3C(=O)CN(C)C)nc2[nH]ccc12 (10 µM) | inactive: 0 | inactive: 0 | inactive: 0 | inactive: 0 | inactive: 0 | inactive: 0 | inactive: 0 | inactive: 0 | inactive: 0 | inactive: 0 | inactive: 0 | inactive: 0 | inactive: 0 | inactive: 0 | inactive: 0 | inactive: 0 | inactive: 0 | inactive: 0 | 0 | 0
CC1=C(C(=O)O)N2C(=O)[C@@H](NC(=O)[C@H](N)C3=CCC=CC3)[C@H]2SC1 [Cephradine] (10 µM) | inactive: 0 | inactive: 0 | inactive: 0 | inactive: 0 | inactive: 0 | inactive: 0 | inactive: 0 | inactive: 0 | inactive: 0 | inactive: 0 | inactive: 0 | inactive: 0 | inactive: 0 | inactive: 0 | inactive: 0 | inactive: 0 | inactive: 0 | inactive: 0 | 0 | 0

An excerpt of these results, tab-delimited:
Compound	kinase-Nluc reporter destabilization hit call (RET)	kinase-Nluc reporter destabilization hit call [1]	kinase-Nluc reporter destabilization hit call (RIOK1)	kinase-Nluc reporter destabilization hit call (RIPK1)	kinase-Nluc reporter destabilization hit call (RIPK2)	kinase-Nluc reporter destabilization hit call (ROR2)	kinase-Nluc reporter destabilization hit call (RPS6KA1)	kinase-Nluc reporter destabilization hit call (SPHK1)	kinase-Nluc reporter destabilization hit call (SRC)	kinase-Nluc reporter destabilization hit call (STK24)	kinase-Nluc reporter destabilization hit call (STK38)	kinase-Nluc reporter destabilization hit call (SYK)	kinase-Nluc reporter destabilization hit call (TEC)	kinase-Nluc reporter destabilization hit call (TYK2)	kinase-Nluc reporter destabilization hit call (ULK3)	kinase-Nluc reporter destabilization hit call (YES1)	kinase-Nluc reporter destabilization hit call (ZAK)	kinase-Nluc reporter destabilization hit call (ZAP70)	number of time points (ABL1)	number of time points (AKT1)
CCN1CCN(Cc2ccc(-c3cc4c(N[C@H](C)c5ccccc5)ncnc4[nH]3)cc2)CC1 (2.5 µM)	inactive: 0	inactive: 0	inactive: 0	inactive: 0	inactive: 0	inactive: 0	inactive: 0	inactive: 0	inactive: 0	inactive: 0	inactive: 0	inactive: 0	inactive: 0	inactive: 0	inactive: 0	inactive: 0	inactive: 0	inactive: 0	3	0
C[C@@H]1CCN(C(=O)CC#N)C[C@@H]1N(C)c1ncnc2[nH]ccc12 [Tofacitinib (citrate)] (10 µM)	inactive: 0	inactive: 0	inactive: 0	inactive: 0	inactive: 0	inactive: 0	inactive: 0	inactive: 0	inactive: 0	inactive: 0	inactive: 0	–	inactive: 0	inactive: 0	inactive: 0	inactive: 0	inactive: 0	inactive: 0	0	0
CCN1CCN(Cc2ccc(Nc3ncc(F)c(-c4cc(F)c5nc(C)n(C(C)C)c5c4)n3)nc2)CC1 [Abemaciclib] (2 µM)	inactive: 0	inactive: 0	inactive: 0	inactive: 0	inactive: 0	inactive: 0	inactive: 0	inactive: 0	inactive: 0	inactive: 0	–	inactive: 0	inactive: 0	–	inactive: 0	inactive: 0	inactive: 0	inactive: 0	0	0
CNC(=O)c1c(F)cccc1Nc1nc(Nc2cc3c(cc2OC)CCN3C(=O)CN(C)C)nc2[nH]ccc12 (10 µM)	inactive: 0	inactive: 0	inactive: 0	inactive: 0	inactive: 0	inactive: 0	inactive: 0	inactive: 0	inactive: 0	inactive: 0	inactive: 0	inactive: 0	inactive: 0	inactive: 0	inactive: 0	inactive: 0	inactive: 0	inactive: 0	0	0
